From patent US20190070268A1, “ABUSE-DETERRENT PHARMACEUTICAL COMPOSITIONS” (priority 2016, published 2019)

Tests used:
laccase = experiment: Thin layer chromatography of enzymatic conversion; type: biochemical; conditions: samples at 2, 10, 30, 60, 120 minutes
[1] = tested on: laccase from Myceliophthora thermophila (MtL); conditions: after 30 minutes; 2 mg/ml morphine in distilled water, 78.3 U/ml MtL

Compound: CN1CC[C@]23c4c5ccc(O)c4O[C@H]2[C@@H](O)C=C[C@H]3[C@H]1C5 [morphine]
- time at which the reference dot disappears on TLC (all converted) (laccase): 30 min
- morphine converted (GC-MS) [1]: approx. 60%
